The target of assay [1] is T1, CGG triplet repeat binding protein 1 (human (endogenous in U-2OS)) (UniProt Q9UFW8).
T1 sequence: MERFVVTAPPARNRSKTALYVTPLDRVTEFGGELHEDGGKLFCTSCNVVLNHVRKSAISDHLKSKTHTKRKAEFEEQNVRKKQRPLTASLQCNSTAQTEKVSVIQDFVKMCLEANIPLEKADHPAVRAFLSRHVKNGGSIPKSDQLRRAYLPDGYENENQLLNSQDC
The experiment in a line: co-IP; IP of endogenous CGGBP1 from U-2OS lysate, control IgG-IP, Western blot for DHX15, DDX41, RNAPII; lysates with or without benzonase (1250 units/mL, 3 h, 4 °C). On the technique in general: A western blot detects proteins with antibodies after separation by electrophoresis.

Amino acid sequences for entries named in this document (tags omitted).
UniProt Q9UJV9: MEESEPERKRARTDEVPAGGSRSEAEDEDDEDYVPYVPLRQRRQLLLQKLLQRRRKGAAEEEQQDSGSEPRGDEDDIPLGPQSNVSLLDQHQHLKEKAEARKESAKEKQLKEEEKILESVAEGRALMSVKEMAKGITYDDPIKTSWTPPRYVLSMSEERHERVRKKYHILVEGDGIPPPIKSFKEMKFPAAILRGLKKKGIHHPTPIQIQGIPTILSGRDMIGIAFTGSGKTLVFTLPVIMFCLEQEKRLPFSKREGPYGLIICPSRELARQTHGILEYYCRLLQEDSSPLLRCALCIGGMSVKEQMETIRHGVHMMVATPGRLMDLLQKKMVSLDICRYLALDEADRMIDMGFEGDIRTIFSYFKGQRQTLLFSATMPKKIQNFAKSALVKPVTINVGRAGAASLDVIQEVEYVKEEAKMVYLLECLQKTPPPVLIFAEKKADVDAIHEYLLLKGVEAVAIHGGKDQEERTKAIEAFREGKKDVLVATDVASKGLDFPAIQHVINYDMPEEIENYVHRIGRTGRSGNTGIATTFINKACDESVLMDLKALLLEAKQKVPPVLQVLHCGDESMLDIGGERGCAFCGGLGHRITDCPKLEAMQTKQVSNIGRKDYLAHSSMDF

Assay [2] deals with DDX41, ATP-dependent DEAD-box DNA:RNA helicase (human (endogenous in U-2OS)) (UniProt Q9UJV9). Briefly: co-IP; reverse co-IP: IP of endogenous DDX41 or DHX15 from U-2OS whole cell lysates with and without benzonase, Western blot for CGGBP1.

No constants are given. Whether binding was seen depends on the method and setting. In cells and extracts the contact can be indirect. Some binding calls cover weakened binding; strength is not graded here.

“DDX41, ATP-dependent DEAD-box DNA:RNA helicase (from UniProt Q9UJV9 1-622) (enzyme)”: the binding result in assay [1] is “binds”.

B1: CGG triplet repeat binding protein 1 (protein, UniProt Q9UFW8 1-167)
chain: T1 sequence
On to B1, for which the binding result in assay [2] was “binds”.

The values above are taken from publication PMC12508481.
